For this assay, the target named is T1, PTPIP51 (mouse (endogenous in MEF)) (UniProt Q3UJU9).
T1 sequence: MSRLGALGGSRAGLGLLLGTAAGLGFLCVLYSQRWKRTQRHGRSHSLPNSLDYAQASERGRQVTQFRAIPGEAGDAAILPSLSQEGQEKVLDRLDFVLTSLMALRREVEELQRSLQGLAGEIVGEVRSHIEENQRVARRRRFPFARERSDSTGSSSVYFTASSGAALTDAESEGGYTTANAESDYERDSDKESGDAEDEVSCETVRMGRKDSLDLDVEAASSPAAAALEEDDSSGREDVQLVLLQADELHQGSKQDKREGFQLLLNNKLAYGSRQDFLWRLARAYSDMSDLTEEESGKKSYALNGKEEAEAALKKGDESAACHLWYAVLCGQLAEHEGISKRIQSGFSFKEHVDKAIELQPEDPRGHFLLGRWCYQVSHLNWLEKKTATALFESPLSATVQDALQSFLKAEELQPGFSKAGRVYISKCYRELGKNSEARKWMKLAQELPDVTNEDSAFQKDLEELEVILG
The experiment in a line: proximity ligation; Duolink PLA in PFA-fixed, Triton-permeabilised MEF cells with anti-VAPB and anti-PTPIP51 primary antibodies; cells untreated or treated with 20 uM CCCP for 5 min, with or without 100 uM CK666; PLA dots per 100 um^2.

The chains behind the UniProt entries cited, without tags or fusion partners.
UniProt Q9QY76: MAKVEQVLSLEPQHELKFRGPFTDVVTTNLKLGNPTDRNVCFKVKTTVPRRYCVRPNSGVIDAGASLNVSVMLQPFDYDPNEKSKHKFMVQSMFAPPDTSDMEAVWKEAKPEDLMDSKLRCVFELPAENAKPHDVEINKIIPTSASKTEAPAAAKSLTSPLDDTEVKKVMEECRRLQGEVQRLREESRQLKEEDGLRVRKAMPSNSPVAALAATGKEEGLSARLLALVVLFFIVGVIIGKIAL

These are yes or no findings as the source states them, for the method shown. Binding seen in cells or lysates may run through a third protein. Some entries that bind do so weakly or less than the wild type.

With VAP-B (from UniProt Q9QY76 1-243), the binding result is recorded as “binds”.

Source of the values: PMC12550048.
